{"source": "PubChem BioAssay AID652259 (Drosophila RNAi Screening Center, 2013)", "aim": "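Identify new Wingless signalling regulators in fly cells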 (primary screen)", "cells": "Drosophila clone 8 imaginal disc epithelial cells", "reagent": "long dsRNA against Drosophila genes", "conditions": "pathway stimulated by co-transfected Wingless expression plasmid", "measurement": "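Firefly luciferase from a tcf-site Wingless reporter, measured alongside co-transfected Renilla luciferase that tracks transfection; pathway stimulated by a Wingless plasmid; the firefly-to-Renilla ratio is not deposited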", "scale": "firefly reporter light: higher = more Wg reporter light, before normalisation; Renilla control light: higher = more transfected or surviving cells", "hit rule": "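a knock-down is a candidate when at least two out of four statistical tests show it departing from its plate mean; one test alone signals a weak candidate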", "calls": "active = candidate regulator (raises or lowers reporter); inactive = not a candidate", "note": "In all, the deposit lists about 22,000 reagents; shown is an unselected part of those with a known target gene and a result. In the full data, 233 (1.1%) are marked active. 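Light values are raw, unnormalised plate reads; the ratio scores behind the reporter calls were not deposited.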 A plus sign joins genes that one reagent is predicted to hit. The record does not give: the amount of reagent, the time to read-out, the dose of the treatment."}
{"Gene": "CG31999", "DRSC id": "DRSC17131", "firefly reporter light, replicate 1": 19201, "Renilla control light, replicate 1": 12004, "activity call": "inactive"}
{"Gene": "CG31999", "DRSC id": "DRSC17133", "firefly reporter light, replicate 1": 18373, "Renilla control light, replicate 1": 12673, "activity call": "inactive"}
{"Gene": "CG30056", "DRSC id": "DRSC21752", "firefly reporter light, replicate 1": 3.12e5, "firefly reporter light, replicate 2": 3.42e5, "Renilla control light, replicate 1": 63470, "Renilla control light, replicate 2": 53689, "activity call": "inactive"}
{"Gene": "Alk", "DRSC id": "DRSC05918", "firefly reporter light, replicate 1": 8934, "firefly reporter light, replicate 2": 7.72e5, "Renilla control light, replicate 1": 2906, "Renilla control light, replicate 2": 3.99e5, "activity call": "inactive"}
{"Gene": "CG11755", "DRSC id": "DRSC14374", "firefly reporter light, replicate 1": 16441, "Renilla control light, replicate 1": 6384, "activity call": "inactive"}
{"Gene": "Uvrag", "DRSC id": "DRSC02932", "firefly reporter light, replicate 1": 14849, "Renilla control light, replicate 1": 3963, "activity call": "inactive"}
{"Gene": "CG17127", "DRSC id": "DRSC02581", "firefly reporter light, replicate 1": 2660, "firefly reporter light, replicate 2": 7178, "Renilla control light, replicate 1": 1163, "Renilla control light, replicate 2": 4274, "activity call": "inactive"}
{"Gene": "CR43670 + CR43671 + CR43669", "DRSC id": "DRSC01554", "firefly reporter light, replicate 1": 15760, "Renilla control light, replicate 1": 9191, "activity call": "inactive"}
{"Gene": "CR43670 + CR43671 + CR43669", "DRSC id": "DRSC01556", "firefly reporter light, replicate 1": 27624, "Renilla control light, replicate 1": 14428, "activity call": "inactive"}
{"Gene": "CG15142", "DRSC id": "DRSC02443", "firefly reporter light, replicate 1": 1476, "firefly reporter light, replicate 2": 5383, "Renilla control light, replicate 1": 699, "Renilla control light, replicate 2": 2236, "activity call": "inactive"}
{"Gene": "CG18599", "DRSC id": "DRSC15357", "firefly reporter light, replicate 1": 19319, "firefly reporter light, replicate 2": 6.70e5, "Renilla control light, replicate 1": 4961, "Renilla control light, replicate 2": 3.42e5, "activity call": "inactive"}
{"Gene": "CG18599", "DRSC id": "DRSC22585", "firefly reporter light, replicate 1": 5.53e5, "firefly reporter light, replicate 2": 4.96e5, "Renilla control light, replicate 1": 54717, "Renilla control light, replicate 2": 24826, "activity call": "inactive"}
{"Gene": "crok", "DRSC id": "DRSC02593", "firefly reporter light, replicate 1": 3921, "firefly reporter light, replicate 2": 9690, "Renilla control light, replicate 1": 1703, "Renilla control light, replicate 2": 3946, "activity call": "inactive"}
{"Gene": "crok", "DRSC id": "DRSC21349", "firefly reporter light, replicate 1": 6.70e5, "firefly reporter light, replicate 2": 7.15e5, "Renilla control light, replicate 1": 4.41e5, "Renilla control light, replicate 2": 3.87e5, "activity call": "inactive"}
{"Gene": "mmm", "DRSC id": "DRSC10208", "firefly reporter light, replicate 1": 1525, "firefly reporter light, replicate 2": 6456, "Renilla control light, replicate 1": 1451, "Renilla control light, replicate 2": 2962, "activity call": "inactive"}

Already shown: entries from further up.
{"Gene": "CG15142", "DRSC id": "DRSC02443", "firefly reporter light, replicate 1": 1476, "firefly reporter light, replicate 2": 5383, "Renilla control light, replicate 1": 699, "Renilla control light, replicate 2": 2236, "activity call": "inactive"}
{"Gene": "CG18599", "DRSC id": "DRSC15357", "firefly reporter light, replicate 1": 19319, "firefly reporter light, replicate 2": 6.70e5, "Renilla control light, replicate 1": 4961, "Renilla control light, replicate 2": 3.42e5, "activity call": "inactive"}
{"Gene": "CG18599", "DRSC id": "DRSC22585", "firefly reporter light, replicate 1": 5.53e5, "firefly reporter light, replicate 2": 4.96e5, "Renilla control light, replicate 1": 54717, "Renilla control light, replicate 2": 24826, "activity call": "inactive"}

Additional reagents follow:
{"Gene": "CG7179", "DRSC id": "DRSC03020", "firefly reporter light, replicate 1": 4322, "firefly reporter light, replicate 2": 4038, "Renilla control light, replicate 1": 1305, "Renilla control light, replicate 2": 1629, "activity call": "inactive"}
{"Gene": "Pvf2", "DRSC id": "DRSC00968", "firefly reporter light, replicate 1": 2709, "Renilla control light, replicate 1": 976, "activity call": "inactive"}
{"Gene": "Pvf2", "DRSC id": "DRSC02283", "firefly reporter light, replicate 1": 4713, "firefly reporter light, replicate 2": 8400, "Renilla control light, replicate 1": 870, "Renilla control light, replicate 2": 3515, "activity call": "inactive"}
{"Gene": "sut2", "DRSC id": "DRSC07701", "firefly reporter light, replicate 1": 7116, "Renilla control light, replicate 1": 1920, "activity call": "inactive"}
{"Gene": "tth", "DRSC id": "DRSC19435", "firefly reporter light, replicate 1": 5435, "firefly reporter light, replicate 2": 9645, "Renilla control light, replicate 1": 698, "Renilla control light, replicate 2": 1345, "activity call": "inactive"}
{"Gene": "CG4004", "DRSC id": "DRSC19791", "firefly reporter light, replicate 1": 2696, "firefly reporter light, replicate 2": 5216, "Renilla control light, replicate 1": 1173, "Renilla control light, replicate 2": 2052, "activity call": "inactive"}
{"Gene": "CG4004", "DRSC id": "DRSC19882", "firefly reporter light, replicate 1": 20355, "Renilla control light, replicate 1": 10008, "activity call": "inactive"}
{"Gene": "CG43109", "DRSC id": "DRSC05754", "firefly reporter light, replicate 1": 16439, "Renilla control light, replicate 1": 9867, "activity call": "inactive"}
{"Gene": "Pcif1", "DRSC id": "DRSC11655", "firefly reporter light, replicate 1": 5664, "Renilla control light, replicate 1": 2050, "activity call": "inactive"}
{"Gene": "Adgf-A2", "DRSC id": "DRSC09507", "firefly reporter light, replicate 1": 3308, "Renilla control light, replicate 1": 1190, "activity call": "inactive"}
